Experimental data from PubChem BioAssay AID2685 (National Center for Advancing Translational Sciences (NCATS), 2010).
The list shows a part of the results. These are further read-outs of the screen, such as a control signal, another cell line or another target. No call is given for them. Most of these compounds were active or inconclusive in the main read-out, so they are no random draw. Words in brackets tell the shape of the fitted curve; partial curves, single points and poor fits give uncertain potencies.

Assay: qHTS Assay for Lipid Storage Modulators in Drosophila S3 Cells;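 for cell number change: cells counted by Cell Tracker Red CMTPX staining in the red channel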
Settings: BODIPY lipid droplet fluorescence, 18-24 h; for cell number change: measured here: cell count max response, cells fed with added oleic acid
Outline: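 Drosophila S3 cells got compounds at several concentrations plus oleic acid (400 uM solution). Laser-scanning cytometry with 488 nm excitation read lipid droplets at 500-530 nm and cells at 575-640 nm. Percent activity was relative to 20 uM Triacsin C.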

[1] = measured here: lipid fluorescence (Fed channel) AC50, cells fed with added oleic acid
[2] = measured here: cell number channel AC50, cells fed with added oleic acid

Compound	cell number change [%]	AC50 [1]	AC50 [2]
O=C(NCc1ccccc1)c1ccc[n+]([O-])c1	5.96	0.103 µM [rising, full curve, poor fit]	–
O=C(CSc1ncnc2c1cnn2-c1ccc(Cl)cc1)NCc1ccc2c(c1)OCO2	100	–	0.231 µM [rising, partial curve, poor fit]
CCC(C)(C)NC(=O)C(NS(=O)(=O)c1cccs1)c1ccccc1 (stereo not given)	–	29.1 µM [rising, single point]	–
CCN(CC)CC(=O)Nc1ccc2c(c1)N(C(=O)CN(CC)CC)c1ccccc1CC2	-18.9	0.651 µM [falling, partial curve, poor fit]	0.259 µM [falling, full curve, poor fit]
Cc1cc(Nc2ccc([N+](=O)[O-])cc2)c2ccccc2n1	–	5.8 µM [falling, single point]	1.84 µM [falling, partial curve]
Cc1ccc(C)c(NC(=O)CSc2nnc(-c3ccncc3)n2N)c1	-0.647	–	–
COc1ccc(-n2ncc3c(N4CCN(c5cc(C)ccc5C)CC4)ncnc32)cc1	11.4	1.3 µM [rising, partial curve]	–
O=C(C1=C[C@@H]2[C@H]3C(=O)N(c4ccccc4)C(=O)[C@H]3[C@@H](C(=O)c3ccc(Cl)cc3)N2C=C1)c1ccccc1	-10	–	0.731 µM [falling, full curve, poor fit]
CNS(=O)(=O)c1ccc(C)c(S(=O)(=O)NC)c1	-1.77	11.6 µM [falling, partial curve]	–
CC(=O)N1CCCC(N2CCN(c3cccc(C(F)(F)F)c3)CC2)C1 (stereo not given)	7.66	0.326 µM [falling, full curve, poor fit]	–
O=C(NCCc1ccccc1)C1CCCN1C(=O)NCc1ccccc1 (stereo not given)	-1.82	1.84 µM [falling, full curve]	–
O=C(CNC(=O)c1ccccc1)NCCc1ccc(O)c(O)c1	-29.2	0.58 µM [rising, single point]	0.0517 µM [falling, full curve, poor fit]
O=S(=O)(Nc1cccc(-c2ccc3nncn3n2)c1)c1cccs1	–	29.1 µM [falling, single point]	2.31 µM [falling, partial curve, poor fit]
Cc1nn2c3c(cnc2c1-c1ccc(Cl)cc1)C(=O)CC(c1ccco1)C3 (stereo not given)	5.68	23.1 µM [rising, single point]	–
COc1ccccc1NS(=O)(=O)c1cccc(C(=O)N/N=C/c2ccc3c(c2)OCCO3)c1	-57.3	5.17 µM [rising, partial curve]	29.1 µM [falling, single point]
COc1cccc(OC)c1CN1CCCC(C(=O)c2ccccc2SC)C1 (stereo not given)	-61.1	32.6 µM [falling, partial curve, poor fit]	32.6 µM [falling, single point]
CC1(C)CC(NC(=O)c2ccccc2F)CC(C)(C)N1	-19	–	–
CCCCCCC(C)OC(=O)Nc1cccc2ccccc12 (stereo not given)	-29.4	25.9 µM [falling, partial curve, poor fit]	–
CCC(=O)Nc1ccnc(-c2cccnc2)n1	1.44	20.6 µM [rising, single point]	–
COc1ccc(OC)c(/C=C/C(=O)OCC(=O)Nc2nnc(-c3ccccc3)o2)c1	3.75	2.06 µM [rising, partial curve, poor fit]	–

Compound	cell number change [%]	AC50 [1]	AC50 [2]
CCC(C)(C)C1CCC2(CC1)NC(=O)N(CC(=O)NCCCc1ccccc1)C2=O (stereo not given)	-12	–	–
CCOP(=O)(c1ccc(N(C)C)cc1)C(O)c1cccnc1 (stereo not given)	4.12	0.517 µM [falling, partial curve, poor fit]	–
CCOc1ccc(C(=O)NCC(=O)Nc2ncccc2C)cc1OCC	58.4	–	16.4 µM [rising, partial curve, poor fit]
CCN(CC)C(=O)c1ccc(C(=O)c2c(C)cc(C)cc2C)cc1	–	–	1.84 µM [rising, partial curve, poor fit]
Clc1ccccc1-c1nn2c(-c3ccccn3)nnc2s1	19.4	–	2.91 µM [rising, single point]
CC(O)C(O)C(O)C(O)C1NCCS1 (stereo not given)	-11.9	20.6 µM [falling, single point]	–
N#C/C(=C\c1ccc(N2CCOCC2)o1)c1nc2ccccc2[nH]1	-99.4	29.1 µM [falling, single point]	29.1 µM [falling, single point]
COc1ccc(CNC(=O)c2cccs2)cc1	3.51	–	–
CC(=O)c1ccc(OCCCC(=O)NC2CCCc3ccccc32)cc1 (stereo not given)	21	29.1 µM [rising, single point]	–
COc1ccc(S(=O)(=O)N2CCN(C(=O)[C@@H]3CCC(=O)N3C3OC(=O)c4ccccc43)CC2)cc1 (stereo not given in full)	-40.7	29.1 µM [falling, single point]	29.1 µM [falling, single point]
COc1ccc(NS(=O)(=O)c2ccc(N3CCN(CCO)CC3)c([N+](=O)[O-])c2)cc1	–	6.51 µM [falling, partial curve]	–
CSCCC(NC(=O)c1ccc(C(C)(C)C)cc1)C(=O)O (stereo not given)	-91.2	–	25.9 µM [falling, partial curve]
CCC12CN(C(=O)c3ccc([N+](=O)[O-])cc3)CC(CC)(CN(C(=O)c3ccc([N+](=O)[O-])cc3)C1)C2=O	-2.19	0.164 µM [falling, full curve, poor fit]	–
Cc1ccc(-c2nn(CC(=O)NCc3cc(-c4nn(C)c(=O)c5ccccc45)ccc3C)c(=O)c3ccccc23)cc1	16.6	23.1 µM [rising, partial curve, poor fit]	–
CC(C)(C)c1ccc(C2(C)NC(=O)N(CC(=O)NC3CCS(=O)(=O)C3)C2=O)cc1 (stereo not given)	-9	–	–
COc1ccc(CN=Cc2[nH]c3ccc(Br)c(Cl)c3c2O)cc1	73.7	–	10.3 µM [rising, partial curve]
OC(COCc1ccc2c(c1)OCO2)CN1CCCCC1 (stereo not given)	-31.8	0.0326 µM [falling, full curve, poor fit]	0.651 µM [falling, partial curve, poor fit]
O=C(COC(=O)c1cnccn1)Nc1c(Cl)cc(Cl)cc1Cl	28.1	6.51 µM [rising, single point]	–
COC(=O)c1ccc(CSc2n[nH]c(C)n2)o1	-26.4	3.66 µM [falling, full curve]	–
Cc1c(OCC(=O)NC(Cc2ccc(Cl)cc2)C(=O)O)ccc2c3c(c(=O)oc12)CCC3 (stereo not given)	38.5	5.17 µM [rising, full curve]	5.17 µM [rising, partial curve, poor fit]

One compound at a time, as listed above. Values in the order: cell number change [%]	AC50 [1]	AC50 [2]
COc1ccc(CNC(=O)c2cccs2)cc1 is listed as 3.51	–	–
CSCCC(NC(=O)c1ccc(C(C)(C)C)cc1)C(=O)O (stereo not given) is listed as -91.2	–	25.9 µM [falling, partial curve]
